In publication PMC7862700:
The entries are a selection whose mix differs from that of the whole data set. At the low end of the ranking, values are background and their order means little.

Assays:
Assay in all cases: DAPPL (digital affinity profiling via proximity ligation, sequencing)
Settings in all cases: 10 mM Tris-HCl pH 7.5, 50 mM NaCl, 1 mM DTT, 4% glycerol, room temperature, 30 min; GST-TFs on glutathione beads, 16-mer random dsDNA library, 0.1% …; high values mean tight binding; double strand, one strand shown; scale: fold enrichment (6-mer frequency, TF over GST control)
ELK1 = target: T1, ELK1 (UniProt P19419)
T1 sequence: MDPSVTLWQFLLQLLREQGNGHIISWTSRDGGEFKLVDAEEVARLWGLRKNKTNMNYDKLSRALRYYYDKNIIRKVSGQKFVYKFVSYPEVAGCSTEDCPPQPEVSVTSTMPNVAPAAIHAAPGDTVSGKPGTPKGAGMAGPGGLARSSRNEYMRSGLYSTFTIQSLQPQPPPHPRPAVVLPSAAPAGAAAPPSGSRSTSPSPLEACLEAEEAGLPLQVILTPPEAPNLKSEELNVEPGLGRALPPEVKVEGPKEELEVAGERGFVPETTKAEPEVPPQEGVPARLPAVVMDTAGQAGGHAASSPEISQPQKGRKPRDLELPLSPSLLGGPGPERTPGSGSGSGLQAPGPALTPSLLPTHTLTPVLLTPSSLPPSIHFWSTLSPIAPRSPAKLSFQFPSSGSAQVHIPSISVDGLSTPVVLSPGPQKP

ELK3 = target: T2, ELK3 (UniProt P41970)
T2 sequence: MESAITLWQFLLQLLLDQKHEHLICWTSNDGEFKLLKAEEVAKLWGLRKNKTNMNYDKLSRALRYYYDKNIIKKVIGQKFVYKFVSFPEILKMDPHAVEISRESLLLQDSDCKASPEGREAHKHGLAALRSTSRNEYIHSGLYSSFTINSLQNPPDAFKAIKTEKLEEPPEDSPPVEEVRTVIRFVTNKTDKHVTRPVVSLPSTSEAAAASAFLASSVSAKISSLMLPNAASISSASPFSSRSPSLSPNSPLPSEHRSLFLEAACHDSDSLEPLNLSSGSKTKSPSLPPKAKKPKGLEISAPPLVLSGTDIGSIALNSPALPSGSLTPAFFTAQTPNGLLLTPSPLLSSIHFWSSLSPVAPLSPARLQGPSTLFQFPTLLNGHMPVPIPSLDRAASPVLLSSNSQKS

SPIC = target: T3, SPIC (UniProt Q8N5J4)
T3 sequence: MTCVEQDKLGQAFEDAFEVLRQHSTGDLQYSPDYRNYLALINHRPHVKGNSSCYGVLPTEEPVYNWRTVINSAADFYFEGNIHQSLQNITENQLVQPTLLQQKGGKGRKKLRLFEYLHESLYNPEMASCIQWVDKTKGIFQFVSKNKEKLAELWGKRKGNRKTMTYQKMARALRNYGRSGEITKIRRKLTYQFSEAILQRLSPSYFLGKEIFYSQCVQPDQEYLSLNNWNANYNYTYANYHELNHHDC

ETS2 = target: T4, ETS2 (UniProt P15036)
T4 sequence: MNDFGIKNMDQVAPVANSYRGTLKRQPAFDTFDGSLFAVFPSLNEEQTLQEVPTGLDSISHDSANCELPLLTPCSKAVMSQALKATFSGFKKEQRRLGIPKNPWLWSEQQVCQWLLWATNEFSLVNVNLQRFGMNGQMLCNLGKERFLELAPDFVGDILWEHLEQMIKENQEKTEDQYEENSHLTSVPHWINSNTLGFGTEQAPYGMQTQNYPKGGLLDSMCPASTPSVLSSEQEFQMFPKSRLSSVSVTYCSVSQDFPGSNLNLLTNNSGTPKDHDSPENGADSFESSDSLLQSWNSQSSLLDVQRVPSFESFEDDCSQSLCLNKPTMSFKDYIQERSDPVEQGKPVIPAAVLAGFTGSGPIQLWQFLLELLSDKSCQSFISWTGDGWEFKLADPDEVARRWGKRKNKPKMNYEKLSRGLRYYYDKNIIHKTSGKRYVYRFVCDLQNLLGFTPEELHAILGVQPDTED

ETV3 = target: T5, ETV3 (UniProt P41162-2)
T5 sequence: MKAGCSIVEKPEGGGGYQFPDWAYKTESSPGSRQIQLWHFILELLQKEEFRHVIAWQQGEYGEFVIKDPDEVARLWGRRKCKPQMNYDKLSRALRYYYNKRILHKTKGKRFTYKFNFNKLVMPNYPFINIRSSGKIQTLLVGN

Sequence	binding signal (ELK1)	binding signal (ELK3)	binding signal (SPIC)	binding signal (ETS2)	binding signal (ETV3)
ACACAG	0.933	0.945	0.896	0.979	0.953
ATCAGT	0.871	0.949	0.852	0.891	0.85
CGTGAT	0.507	0.467	0.4	0.495	0.451
GTACCG	0.733	0.692	0.712	0.717	0.722
CGTAGG	0.688	0.719	0.846	0.679	0.678
CAAGAG	0.721	0.709	0.857	0.761	0.742
AGGCGC	0.546	0.564	0.605	0.575	0.522
AGGGGA	0.58	0.634	0.622	0.651	0.63
GAGCGC	0.625	0.673	0.693	0.578	0.626
TCAGGT	0.886	0.79	0.775	0.925	0.862
TCGGTA	0.553	0.616	0.577	0.598	0.555
GCTGGA	0.787	0.635	0.912	0.858	0.834
TGGACG	0.782	0.807	0.933	0.826	0.826
GGGTAA	0.771	0.876	0.75	0.872	0.769
GACGTG	0.335	0.342	0.355	0.355	0.347
TGAGAA	0.734	0.733	0.673	0.794	0.658
GCGTGT	0.585	0.502	0.599	0.583	0.592
CGTGGA	0.556	0.511	0.562	0.582	0.634
CGCATT	0.797	0.765	0.754	0.784	0.801
CGGCGC	0.642	0.628	0.707	0.614	0.687

Full records, quoted from the list. Values in the order: binding signal (ELK1) | binding signal (ELK3) | binding signal (SPIC) | binding signal (ETS2) | binding signal (ETV3)
TCGGTA reads 0.553 | 0.616 | 0.577 | 0.598 | 0.555
CAAGAG reads 0.721 | 0.709 | 0.857 | 0.761 | 0.742
TGGACG reads 0.782 | 0.807 | 0.933 | 0.826 | 0.826
CGGCGC reads 0.642 | 0.628 | 0.707 | 0.614 | 0.687

Additional records follow.

Sequence	binding signal (ELK1)	binding signal (ELK3)	binding signal (SPIC)	binding signal (ETS2)	binding signal (ETV3)
GAAGGG	0.789	0.837	0.777	0.935	0.857
CGGACT	0.927	0.899	0.785	0.781	0.856
GCACGG	0.777	0.794	0.811	0.852	0.854
AAGCGT	0.791	0.92	0.895	0.888	0.837
GCGGAC	0.683	0.659	0.58	0.7	0.642
GCACCG	0.762	0.764	0.767	0.731	0.723
GCCGCG	0.688	0.797	0.753	0.815	0.786
CCATCG	0.842	0.921	0.81	0.898	0.894
CGGGGG	0.507	0.469	0.456	0.435	0.494
GTCATA	0.741	0.787	0.744	0.785	0.705
GGACCA	0.755	0.82	0.759	0.763	0.759
CGTGCT	0.885	0.78	0.942	0.901	0.835
GAGTGT	0.538	0.465	0.585	0.532	0.553
CCCAGC	0.957	0.951	0.94	0.914	0.866
GACGGT	0.454	0.452	0.39	0.468	0.453
GGGCGG	0.422	0.442	0.466	0.44	0.423
ATCGTG	0.413	0.443	0.389	0.416	0.405
AGAGAG	0.523	0.548	0.57	0.466	0.484
GGACCC	0.791	0.86	0.828	0.781	0.866
GAGCTG	0.725	0.679	0.734	0.682	0.775

Sequence	binding signal (ELK1)	binding signal (ELK3)	binding signal (SPIC)	binding signal (ETS2)	binding signal (ETV3)
TCGGTT	0.845	0.791	0.98	0.819	0.809
GACGAT	0.853	0.951	0.917	0.928	0.841
GACGCT	0.806	0.742	0.801	0.789	0.754
CAGGAC	0.778	0.771	0.638	0.82	0.818
AGGAGC	0.401	0.387	0.416	0.384	0.367
GGTGTC	0.802	0.758	0.836	0.78	0.826
GGGTCG	0.571	0.558	0.602	0.658	0.587
AGCCTG	0.947	0.734	0.659	0.813	0.913
TATCGG	0.807	0.874	0.906	0.844	0.86
GGTGCC	0.789	0.723	0.804	0.738	0.81
AGACCC	0.745	0.618	0.637	0.736	0.659
AGTCAG	0.51	0.512	0.504	0.514	0.499
CAGAGA	0.622	0.619	0.611	0.584	0.612
GAGAGA	0.406	0.505	0.401	0.413	0.419
GGGTGT	0.697	0.744	0.759	0.772	0.773
GCATGC	0.854	0.753	1.07	0.838	0.806
AGATCG	0.515	0.394	0.433	0.461	0.476
AGTTGT	0.812	0.716	0.916	0.775	0.755
AGCCGC	0.961	0.971	0.868	0.795	0.919
GCGTAC	0.899	0.974	0.9	0.947	0.838
